Test results as given in PMC4359025.

Target: Pbl fused with HA epitope (Pbl::HA) (Drosophila (fly))
Test: co-IP; S2 cell lysates transfected with control DNA, HA::Pbl, or HA::Pbl and Par6::FLAG; 5 ug anti-HA or anti-Flag antibody, Protein A/G magnetic beads; western blot with anti-Flag, anti-aPKC or anti-HA

binding: binds
B1: Par-6 fused with Flag epitope (Par6::Flag) (protein, UniProt O97111 1-351)
chain: MSKNKINTTSATAASDTNLIEVKSKFDAEFRRWSFKRNEAEQSFDKFASLIEQLHKLTNIQFLILYIDPRDNDLLPINNDDNFGRALKTARPLLRVIVQRKDDLNEYSGFGTMKPRNLIGSILMGHTPVKTKAPSISIPHDFRQVSAIIDVDIVPETHRRVRLLKHGSDKPLGFYIRDGTSVRVTASGLEKQPGIFISRLVPGGLAESTGLLAVNDEVIEVNGIEVAGKTLDQVTDMMVANSSNLIITVKPANQRTLTSTHRGSFSRNSQLSSGSHHTNNTNTSDEIEHDDQDDIVDLTGVTLDESPTSTSAGNHNHQPPLSSSPSSHHQQAASNASTIMASDVKDGVLHL

Results are given in words; binding and its absence hold for the method and conditions named. In cells and extracts the contact can be indirect. Binding calls can cover weak binding; strength is not graded here. Sequences can lack the tags named with a protein.
